Reference: patent publication US20230203156A1, “ANTI-MDR1 ANTIBODIES AND USES THEREOF” (KENJOCKETY BIOTECHNOLOGY, INC., priority 2020, published 2023)
These are yes or no findings as the source states them, for the method shown. Some results given as binding are weak or reduced against the parent protein; the word gives no strength. One block for each binder: values may come before it.

Sequences of proteins named here, by UniProt entry; tags and fusion partners are left off. A change or cut given only in a name is not applied to a line headed by its entry.
UniProt P08183: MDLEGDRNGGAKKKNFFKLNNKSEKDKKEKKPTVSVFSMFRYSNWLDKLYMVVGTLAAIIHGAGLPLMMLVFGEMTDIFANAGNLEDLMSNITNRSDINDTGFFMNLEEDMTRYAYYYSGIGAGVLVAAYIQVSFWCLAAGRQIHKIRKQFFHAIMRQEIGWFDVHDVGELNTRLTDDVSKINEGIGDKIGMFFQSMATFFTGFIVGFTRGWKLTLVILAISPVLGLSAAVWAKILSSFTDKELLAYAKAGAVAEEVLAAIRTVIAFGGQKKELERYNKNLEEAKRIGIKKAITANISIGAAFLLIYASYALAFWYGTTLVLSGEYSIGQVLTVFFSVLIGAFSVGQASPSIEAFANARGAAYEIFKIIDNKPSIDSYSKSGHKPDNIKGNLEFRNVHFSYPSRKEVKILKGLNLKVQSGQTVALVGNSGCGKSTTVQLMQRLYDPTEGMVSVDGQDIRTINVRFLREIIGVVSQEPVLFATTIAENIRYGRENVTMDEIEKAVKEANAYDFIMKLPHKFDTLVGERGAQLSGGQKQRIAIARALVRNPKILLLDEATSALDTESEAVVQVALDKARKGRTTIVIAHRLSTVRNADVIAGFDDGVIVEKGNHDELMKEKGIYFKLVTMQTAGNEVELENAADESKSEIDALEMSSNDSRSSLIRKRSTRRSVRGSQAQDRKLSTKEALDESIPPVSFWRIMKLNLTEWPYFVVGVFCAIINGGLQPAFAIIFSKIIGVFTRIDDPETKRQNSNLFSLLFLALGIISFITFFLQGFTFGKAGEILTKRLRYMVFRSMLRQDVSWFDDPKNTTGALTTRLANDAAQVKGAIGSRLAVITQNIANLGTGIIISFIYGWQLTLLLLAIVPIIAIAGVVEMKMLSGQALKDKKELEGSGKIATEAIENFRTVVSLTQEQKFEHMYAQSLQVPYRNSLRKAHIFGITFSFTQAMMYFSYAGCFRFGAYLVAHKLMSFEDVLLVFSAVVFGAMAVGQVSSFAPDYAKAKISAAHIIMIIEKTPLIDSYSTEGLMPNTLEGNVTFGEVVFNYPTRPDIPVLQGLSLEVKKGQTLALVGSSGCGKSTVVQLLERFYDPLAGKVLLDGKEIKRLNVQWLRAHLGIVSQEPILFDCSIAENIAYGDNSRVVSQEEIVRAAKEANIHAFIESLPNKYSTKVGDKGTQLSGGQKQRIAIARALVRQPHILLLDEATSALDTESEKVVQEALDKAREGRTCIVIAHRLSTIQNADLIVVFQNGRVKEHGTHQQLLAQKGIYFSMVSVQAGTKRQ

Experiments:
[1] = target: cynomolgus MDR1 (Macaca fascicularis) (Macaca fascicularis (cynomolgus)); assay: flow cytometry
[2] = target: human MDR1 (multidrug resistance protein 1) (human) (UniProt P08183); assay: flow cytometry
[3] = target: human MDR1 (multidrug resistance protein 1) (human) (UniProt P08183); assay: flow cytometry on cells expressing human MDR1
[4] = target: cynomolgus MDR1 (Macaca fascicularis) (Macaca fascicularis (cynomolgus)); assay: flow cytometry on cells expressing cynomolgus MDR1
[5] = target: human MDR1 (multidrug resistance protein 1) (human) (UniProt P08183); assay: binding to MES-SA DX5 and A2780ADR cells, which express both ABCB1 and CD47

binding [1]: binds
binding [2]: binds
binding [3]: binds
binding [4]: binds
B1: B1.261.huH2(VH3)-huL1 (antibody, human IgG1, V domains shown)
VH: EVQLVESGGGLIQPGGSLRLSCAVSGFSLTSYGVHWVRQPPGKGLEWLVVIWSDGSTTYNSALKSRLTISKDNSKNTVYLQMNSLRAEDTAVYYCARHGRWLLQRGGAMDYWGQGTMVTVSS
VL: DVQMTQSPSSLSASVGDRVTITCRASQNVGSYIAWYQQKPGKSPKALIYSASYRSSGVPSRFSGSGAGTDFTLTISSLQPEDFATYFCQQYNSYPLTFGGGTKLEIK

binding [5]: binds
B2: KB1-1401 (15D3VH:MRK16VL::MRK16VL:5F9VH) (bispecific antibody, V domains shown)
VH 1: EVKVVESGGVLVRPGGSLKLSCAASGFTFSRYTMSWVRQTPEKRLEWVATISSGGGNTYYPDSVKGRFTVSRDNAMSSLYLQMSSLRSEDTALYYCARYGAGDAWFAYWGQGTLVTVSS
VH 2: QVQLVQSGAEVKKPGASVKVSCKASGYTFTNYNMHWVRQAPGQRLEWMGTIYPGNDDTSYNQKFKDRVTITADTSASTAYMELSSLRSEDTAVYYCARGGYRAMDYWGQGTLVTVSS
VL: DVLMTQTPVSLSVSLGDQASISCRSSQSIVHSTGNTYLEWYLQKPGQSPKLLIYKISNRFSGVPDRFSGSGSGTDFTLKISRVEAEDLGVYYCFQASHFPRTFGGGTKLEIK
